Earlier results in patent publication US12491209B2, “Dissolved C60 and method of producing dissolved C60” (Innovation for Success, LLC, priority 2019, dated 2025).
Converted amounts (≈) assume the structure as drawn. At least one structure is not confirmed: it was looked up by name or label, or the drawing left a doubt.

Details: solvent olive oil; cited from earlier work

For `c12c3c4c5c1c1c6c7c2c2c8c3c3c9c4c4c%10c5c5c1c1c6c6c%11c7c2c2c7c8c3c3c8c9c4c4c9c%10c5c5c1c1c6c6c%11c2c2c7c3c3c8c4c4c9c5c1c1c6c2c3c41` [C60, Buckminsterfullerene], the “Solubility Limit” value is given as 900 µg/mL (≈ 1250 µM).
